In patent US8211445B2, “PSM peptides as vaccine targets against methicillin-resistant Staphylococcus” (The United States of America, as represented by the …, priority 2007, dated 2012):
Part of at least one peptide drawing is inferred or uncertain, most often the ends. Residues, ends and D or L forms follow the SMILES beside them.

Columns and labels:
human neutrophils [1] = assay: Lysis of human neutrophils (release of lactate dehydrogenase); assay type: cell-based
Procedure: (§1) Lysis of PMNs by synthetic PSMs or clarified S. aureus culture media was determined essentially as described (Voyich et al., J Infect Dis 194, 1761-70, 2006; Voyich et al., J Immunol 175, 3907-19, 2005). Synthetic PSMs (1 or 10 μg/ml) were added to wells of a 96-well tissue culture plate containing 10^6 PMNs and plates were incubated at 37° C. for up to 3 hours. At the desired times, PMN lysis was determined by release of lactate dehydrogenase (LDH; Cytotoxicity Detection Kit, Roche Applied Sciences). Alternatively, wild-type and isogenic mutant S. aureus strains were cultured for 18 hours at 37° C. in 50 ml TSB with shaking using a 100 ml flask. Bacteria were removed by centrifugation and culture media were sterilized by filtration and stored at −80° C. in aliquots until used. Culture medium was diluted 1:10 in RPMI/H, mixed with human PMNs (10^6) and tested for its ability to cause PMN lysis.
as §1, with “above in Example 2.” for “(Voyich et al., J Infect Dis 194, 1761-70, 2006; Voyich et al., J Immunol 175, 3907-19, 2005).”
Human neutrophil assays: Human neutrophil isolation, chemotaxis, calcium ion flux, priming, lysis assays, and measurement of IL-8 production were performed as described in Example 2.

human PMN = assay: Measurement of cytokine production by human PMN (ELISA); assay type: cell-based; conditions: 10 μg/ml PSM; about in the same range as other α-type PSMs (FIG. 21C)
Procedure: After isolation and washing, PMN or PBMC were resuspended in RPMI 1640 medium (Sigma) supplemented with 10% human serum, 2 mM L-glutamine, 100 U/ml penicillin, 100 μg/ml streptomycin, 2 mM sodium pyruvate, and 10 mM HEPES. Cells were distributed to a 96-well culture plate at 200 μl and 5×10^5 cells per well. Synthetic PSM peptides or filtered bacterial culture supernatants were diluted in fresh culture medium and added to the plate at 100 μl/well. Plates were incubated at 37° C. in a 5.5% CO2 incubator for 5 hours. Then, the plate was centrifuged at 1500 rpm for 10 minutes, and supernatant was harvested from each well. Mono Mac 6 cells were obtained from DSMZ (Germany), and were grown in RPMI 1640 plus 10% heat inactivated fetal bovine serum (HyClone), 2 mM L-glutamine, 10.0 units/ml penicillin, 10.0 μg/ml streptomycin, 0.2× non-essential amino acid solution, and OPI medium supplement (Sigma). Cells were grown in T75 culture flasks in a 37° C. CO2 incubator and harvested by centrifugation. After removal of supernatant, cells were resuspended in fresh culture medium, counted, and distributed into a 96-well cell culture plate at 100 μl and 2.5×10^5 cells per well. […] Human TNF-α, IL-1β, IL-8, and mouse TNF-α were measured in the culture supernatants with commercial ELISA assay kits (R&D systems) according to the manufacturer's instructions. […]

human neutrophils [2] = assay: Neutrophil chemotaxis (transwell); assay type: cell-based; conditions: PSM-mec vs PSMα3; range similar to other α-type PSMs, in general higher than β-type PSMs (FIG. 21A)
Procedure: (§2) Neutrophils were subjected to a brief hypotonic shock with pyrogen-free water (Sigma), washed, and suspended at 5×10^6 cells/ml in HBSS containing 0.05% human serum albumin (HSA; CLB). Chemotaxis of neutrophils was determined by using fluorescently-labeled neutrophils that migrated through a membrane fitted into an insert of a 24-well microtiter plate transwell system (Costar) containing a prewetted 3-μm-pore-size polycarbonate filter as described (de Haas et al., J Exp Med 199, 687-95, 2004). For measurement of calcium ion fluxes, 5×10^6 neutrophils/ml were loaded with 2 μM Fluo-3-AM (Molecular Probes) in RPMI containing 0.05% HSA (RPMI-HSA) for 20 minutes at room temperature under agitation, washed twice with buffer, and resuspended in RPMI-HSA at 10^6 cells/ml. Calcium fluxes were analyzed with a FACScalibur (Becton Dickinson).
(§3) Neutrophils were subjected to a brief hypotonic shock with pyrogen-free water (Sigma), washed, and suspended at 5×10^6 cells/ml in HBSS containing 0.05% human serum albumin (HAS; CLB). Chemotaxis of neutrophils was determined by using fluorescently-labeled neutrophils that migrated through a membrane fitted into an insert of a 24-well microtiter plate transwell system (Costar) containing a prewetted 3-μm-pore-size polycarbonate filter. […] Calcium fluxes were analyzed with a FACScalibur (Becton Dickinson). […]

human neutrophils [3] = assay: Calcium ion flux in neutrophils (Fluo-3-AM); assay type: cell-based; conditions: PSM-mec vs PSMα3; range similar to other α-type PSMs, in general higher than β-type PSMs (FIG. 21B)
Procedure: as §2, §3

[4] = Circular dichroism (CD) measurement of synthetic PSM peptides; assay type: physicochemical; conditions: for α-helical content: computed from CD spectrum
S. aureus SA113 = assay: Semi-quantitative biofilm assay; assay type: cell-based, Staphylococcus aureus; conditions: intermediate PSM-mec concentrations (50 μg/ml); directly on plastic and on fibrinogen-precoated plates

## CC[C@H](C)[C@H](NC(=O)[C@H](CS)NC(=O)[C@@H](NC(=O)[C@H](CCCCN)NC(=O)[C@@H](NC(=O)[C@H](CC(C)C)NC(=O)[C@H](CC(=O)O)NC(=O)[C@@H](NC(=O)[C@@H](NC(=O)[C@H](CO)NC(=O)[C@@H](NC(=O)[C@@H](NC(=O)[C@@H](NC(=O)CNC(=O)[C@@H](NC(=O)[C@H](Cc1ccccc1)NC(=O)[C@H](CC(=O)O)NC(=O)[C@H](CCSC)NC=O)[C@@H](C)O)C(C)C)[C@@H](C)CC)[C@@H](C)O)[C@@H](C)CC)[C@@H](C)CC)[C@@H](C)CC)[C@@H](C)O)C(=O)N[C@@H](CCC(N)=O)C(=O)N[C@@H](C)C(=O)N[C@@H](Cc1ccccc1)C(=O)NCC(=O)O [PSM-mec] (HELM PEPTIDE1{[O=C[*:2]].M.D.F.T.G.V.I.T.S.I.I.D.L.I.K.T.C.I.Q.A.F.G}$$$$V2.0)
Human neutrophils [1]; PSM-mec added up to 100% of the concentration detected in the wild-type strain (FIG. 23B)
  neutrophil-lytic capacity of MSA890 psm-mec deletion strain culture filtrate with added PSM-mec: completely restored
Human neutrophils [1]; PSM-mec at 50 μg/ml compared with other α-type PSMs at 10 μg/ml (FIG. 21F)
  neutrophil lysis: approximately the same level
Human neutrophils [1]; PSM-mec compared with other α-type PSMs
  neutrophil lysis: lower in PSM-mec than in other α-type PSMs
Human PMN
  capacity to elicit production of the cytokine IL-8: somewhat higher than that detected for other α-type PSMs
Human neutrophils [2]
  chemotactic activities: lower chemotactic activities
Human neutrophils [3]
  calcium flux: lower calcium flux
[4]; CD in 50% trifluoroethanol, α-helical wheel
  α-helicity and amphipathy: strong α-helicity and amphipathy
[4]; CDSSTR
  α-helical content: 63.7%
[4]; CONTINLL
  α-helical content: 59.3%
[4]; SELCON3
  α-helical content: 56.2%
S. aureus SA113
  biofilm formation: reduced biofilm formation
